Measurements taken from paper PMC6396947.
Where two headings read alike, the source gives them in different places. No constants are given. Whether binding was seen depends on the method and setting. In cells and extracts the contact can be indirect. These calls come from enrichment with a bait or labelling near it, and not all partners need be listed.

Amino acid sequences for entries named in this document (tags omitted).
UniProt Q56NI9: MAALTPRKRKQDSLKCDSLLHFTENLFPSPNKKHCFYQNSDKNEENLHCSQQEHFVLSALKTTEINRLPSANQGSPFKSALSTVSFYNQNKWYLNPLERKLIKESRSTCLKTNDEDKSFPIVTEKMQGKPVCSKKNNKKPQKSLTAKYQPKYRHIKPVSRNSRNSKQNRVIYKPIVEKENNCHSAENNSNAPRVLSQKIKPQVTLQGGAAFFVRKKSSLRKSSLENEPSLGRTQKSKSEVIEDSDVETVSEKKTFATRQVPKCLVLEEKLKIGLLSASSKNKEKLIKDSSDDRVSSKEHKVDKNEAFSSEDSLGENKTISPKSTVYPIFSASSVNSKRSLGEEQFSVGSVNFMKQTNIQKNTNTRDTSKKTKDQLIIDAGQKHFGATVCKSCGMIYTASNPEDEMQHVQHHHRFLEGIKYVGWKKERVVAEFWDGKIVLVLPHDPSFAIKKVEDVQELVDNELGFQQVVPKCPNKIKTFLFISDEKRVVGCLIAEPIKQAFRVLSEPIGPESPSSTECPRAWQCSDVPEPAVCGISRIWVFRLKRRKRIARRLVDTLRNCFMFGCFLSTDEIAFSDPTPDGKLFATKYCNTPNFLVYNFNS
UniProt Q16531: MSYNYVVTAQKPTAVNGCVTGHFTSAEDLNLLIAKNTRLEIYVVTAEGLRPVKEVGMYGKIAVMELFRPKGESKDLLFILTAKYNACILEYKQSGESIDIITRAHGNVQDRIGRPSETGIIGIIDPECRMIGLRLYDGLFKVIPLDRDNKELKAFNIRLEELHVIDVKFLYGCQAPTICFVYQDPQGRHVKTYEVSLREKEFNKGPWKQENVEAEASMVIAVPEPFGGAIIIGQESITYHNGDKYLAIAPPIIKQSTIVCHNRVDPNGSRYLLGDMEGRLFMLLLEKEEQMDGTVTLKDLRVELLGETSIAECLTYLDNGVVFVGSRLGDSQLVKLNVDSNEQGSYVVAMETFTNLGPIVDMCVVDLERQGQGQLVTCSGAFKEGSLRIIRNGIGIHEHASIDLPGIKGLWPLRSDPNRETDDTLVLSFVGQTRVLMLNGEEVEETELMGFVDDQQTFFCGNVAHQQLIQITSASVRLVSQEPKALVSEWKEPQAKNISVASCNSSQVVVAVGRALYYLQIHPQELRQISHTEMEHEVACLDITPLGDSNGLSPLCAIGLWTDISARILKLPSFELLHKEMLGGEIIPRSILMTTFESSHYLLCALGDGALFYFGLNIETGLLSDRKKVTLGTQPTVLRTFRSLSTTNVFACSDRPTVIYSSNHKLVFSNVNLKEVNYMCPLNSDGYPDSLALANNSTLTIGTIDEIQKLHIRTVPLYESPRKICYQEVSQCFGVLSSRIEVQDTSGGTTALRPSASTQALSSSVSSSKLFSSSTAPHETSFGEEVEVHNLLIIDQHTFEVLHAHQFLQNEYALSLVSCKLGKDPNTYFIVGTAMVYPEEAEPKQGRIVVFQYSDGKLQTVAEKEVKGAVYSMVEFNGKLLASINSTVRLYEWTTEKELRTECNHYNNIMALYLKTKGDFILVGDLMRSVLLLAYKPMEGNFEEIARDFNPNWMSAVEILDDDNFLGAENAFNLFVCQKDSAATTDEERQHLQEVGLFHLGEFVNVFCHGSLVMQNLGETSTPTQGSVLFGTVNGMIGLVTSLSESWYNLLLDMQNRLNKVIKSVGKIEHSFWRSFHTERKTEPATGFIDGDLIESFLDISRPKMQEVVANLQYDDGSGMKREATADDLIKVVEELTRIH
UniProt P12004: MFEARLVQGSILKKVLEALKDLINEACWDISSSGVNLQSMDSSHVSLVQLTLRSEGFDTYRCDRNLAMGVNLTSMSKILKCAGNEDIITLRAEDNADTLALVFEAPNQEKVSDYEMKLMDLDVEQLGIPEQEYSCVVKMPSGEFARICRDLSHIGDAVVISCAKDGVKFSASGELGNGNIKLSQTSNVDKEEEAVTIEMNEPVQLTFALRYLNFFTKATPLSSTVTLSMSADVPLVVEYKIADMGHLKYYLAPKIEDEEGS

Tests used:
ESCO2-HF (human) [1] = biological target: ESCO2-HF (human) (UniProt Q56NI9); experiment: affinity purification with mass spectrometry; ESCO2-HF over-expressed in 293T; tandem purification from whole cell extracts on anti-FLAG M2 and Ni2+ gels, eluted with FLAG peptide and 300 mM imidazole; final eluates analysed by MS; three repeats; untagged cells and ESCO1-HF as controls
ESCO2-HF (human) [2] = biological target: ESCO2-HF (human) (UniProt Q56NI9); experiment: as above; remark: listed apart in the source

Question: How did the binding (ESCO2-HF (human) [1]) turn out when “DDB1 (endogenous, co-purified with ESCO2-HF) (from UniProt Q16531 1-1140)” was run?
Answer: Its binding is “binds”.

Question: How did the binding (ESCO2-HF (human) [1]) turn out when “PCNA (endogenous, ESCO2-IP/MS) (from UniProt P12004 1-261)” was run?
Answer: The binding was “binds weakly”.

B1: MMS22L (endogenous, ESCO2-IP/MS) (protein, UniProt Q6ZRQ5 1-1243)
chain: MENCSAASTFLTDSLELELGTEWCKPPYFSCAVDNRGGGKHFSGESYLCSGALKRLILNLDPLPTNFEEDTLEIFGIQWVTETALVNSSRELFHLFRQQLYNLETLLQSSCDFGKVSTLHCKADNIRQQCVLFLHYVKVFIFRYLKVQNAESHVPVHPYEALEAQLPSVLIDELHGLLLYIGHLSELPSVNIGAFVNQNQIKLFPPSWHLLHLHLDIHWLVLEILYMLGEKLKQVVYGHQFMNLASDNLTNISLFEEHCETLLCDLISLSLNRYDKVRSSESLMSDQCPCLCIKELWVLLIHLLDHRSKWFVSESFWNWLNKLLKTLLEKSSDRRRSSMPVIQSRDPLGFSWWIITHVASFYKFDRHGVPDEMRKVESNWNFVEELLKKSISVQGVILEEQLRMYLHCCLTLCDFWEPNIAIVTILWEYYSKNLNSSFSISWLPFKGLANTMKSPLSMLEMVKTCCCDKQDQELYKSSSSYTIFLCILAKVVKKAMKSNGPHPWKQVKGRIYSKFHQKRMEELTEVGLQNFFSLFLLLAAVAEVEDVASHVLDLLNFLKPAFVTSQRALIWKGHMAFLLMYAQKNLDIGVLAEKFSCAFREKAKEFLVSKNEEMVQRQTIWTLLSIYIDGVQEVFETSYCLYPSHEKLLNDGFSMLLRACRESELRTVLSFLQAVLARIRSMHQQLCQELQRDNVDLFVQSSLSAKERHLAAVASALWRHFFSFLKSQRMSQVVPFSQLADAAADFTLLAMDMPSTAPSDFQPQPVISIIQLFGWDDIICPQVVARYLSHVLQNSTLCEALSHSGYVSFQALTVRSWIRCVLQMYIKNLSGPDDLLIDKNLEEAVEKEYMKQLVKLTRLLFNLSEVKSIFSKAQVEYLSISEDPKKALVRFFEAVGVTYGNVQTLSDKSAMVTKSLEYLGEVLKYIKPYLGKKVFSAGLQLTYGMMGILVKSWAQIFATSKAQKLLFRIIDCLLLPHAVLQQEKELPAPMLSAIQKSLPLYLQGMCIVCCQSQNPNAYLNQLLGNVIEQYIGRFLPASPYVSDLGQHPVLLALRNTATIPPISSLKKCIVQVIRKSYLEYKGSSPPPRLASILAFILQLFKETNTDIYEVELLLPGILKCLVLVSEPQVKRLATENLQYMVKACQVGSEEEPSSQLTSVFRQFIQDYGMRYYYQVYSILETVATLDQQVVIHLISTLTQSLKDSEQKWGLGRNIAQREAYSKLLSHLGQMGQDEMQRLENDNT
Question: How did the binding (ESCO2-HF (human) [2]) turn out when B1 was run?
Answer: Its binding is “binds weakly”.
